Measured values taken from doi:10.1101/2022.08.15.504042.
Results are given in words; binding and its absence hold for the method and conditions named. Binding seen in cells or lysates may run through a third protein. These calls come from enrichment with a bait or labelling near it, and not all partners need be listed.

By UniProt entry, the sequences of proteins in these tests, tags left out. Where a name states a change or a piece, a line headed by the entry shows the natural chain unless it says otherwise.
UniProt Q21126: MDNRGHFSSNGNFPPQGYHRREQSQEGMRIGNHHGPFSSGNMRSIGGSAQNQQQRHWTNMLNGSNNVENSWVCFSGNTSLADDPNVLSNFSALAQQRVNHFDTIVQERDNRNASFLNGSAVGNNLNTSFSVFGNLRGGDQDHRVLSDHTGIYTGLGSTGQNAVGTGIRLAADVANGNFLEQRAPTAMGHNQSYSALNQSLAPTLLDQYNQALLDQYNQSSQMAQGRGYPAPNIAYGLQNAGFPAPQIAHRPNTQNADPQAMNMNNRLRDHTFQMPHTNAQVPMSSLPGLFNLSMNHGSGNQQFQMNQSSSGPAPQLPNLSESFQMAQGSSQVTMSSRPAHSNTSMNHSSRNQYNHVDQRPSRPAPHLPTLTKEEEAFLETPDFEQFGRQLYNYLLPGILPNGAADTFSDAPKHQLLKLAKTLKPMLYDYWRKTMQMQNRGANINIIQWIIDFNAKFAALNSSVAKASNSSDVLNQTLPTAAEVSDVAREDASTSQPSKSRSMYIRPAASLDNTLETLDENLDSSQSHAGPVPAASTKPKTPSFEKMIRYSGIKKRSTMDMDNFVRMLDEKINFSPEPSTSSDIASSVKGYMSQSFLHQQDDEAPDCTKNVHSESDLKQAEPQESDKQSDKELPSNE
UniProt Q20937: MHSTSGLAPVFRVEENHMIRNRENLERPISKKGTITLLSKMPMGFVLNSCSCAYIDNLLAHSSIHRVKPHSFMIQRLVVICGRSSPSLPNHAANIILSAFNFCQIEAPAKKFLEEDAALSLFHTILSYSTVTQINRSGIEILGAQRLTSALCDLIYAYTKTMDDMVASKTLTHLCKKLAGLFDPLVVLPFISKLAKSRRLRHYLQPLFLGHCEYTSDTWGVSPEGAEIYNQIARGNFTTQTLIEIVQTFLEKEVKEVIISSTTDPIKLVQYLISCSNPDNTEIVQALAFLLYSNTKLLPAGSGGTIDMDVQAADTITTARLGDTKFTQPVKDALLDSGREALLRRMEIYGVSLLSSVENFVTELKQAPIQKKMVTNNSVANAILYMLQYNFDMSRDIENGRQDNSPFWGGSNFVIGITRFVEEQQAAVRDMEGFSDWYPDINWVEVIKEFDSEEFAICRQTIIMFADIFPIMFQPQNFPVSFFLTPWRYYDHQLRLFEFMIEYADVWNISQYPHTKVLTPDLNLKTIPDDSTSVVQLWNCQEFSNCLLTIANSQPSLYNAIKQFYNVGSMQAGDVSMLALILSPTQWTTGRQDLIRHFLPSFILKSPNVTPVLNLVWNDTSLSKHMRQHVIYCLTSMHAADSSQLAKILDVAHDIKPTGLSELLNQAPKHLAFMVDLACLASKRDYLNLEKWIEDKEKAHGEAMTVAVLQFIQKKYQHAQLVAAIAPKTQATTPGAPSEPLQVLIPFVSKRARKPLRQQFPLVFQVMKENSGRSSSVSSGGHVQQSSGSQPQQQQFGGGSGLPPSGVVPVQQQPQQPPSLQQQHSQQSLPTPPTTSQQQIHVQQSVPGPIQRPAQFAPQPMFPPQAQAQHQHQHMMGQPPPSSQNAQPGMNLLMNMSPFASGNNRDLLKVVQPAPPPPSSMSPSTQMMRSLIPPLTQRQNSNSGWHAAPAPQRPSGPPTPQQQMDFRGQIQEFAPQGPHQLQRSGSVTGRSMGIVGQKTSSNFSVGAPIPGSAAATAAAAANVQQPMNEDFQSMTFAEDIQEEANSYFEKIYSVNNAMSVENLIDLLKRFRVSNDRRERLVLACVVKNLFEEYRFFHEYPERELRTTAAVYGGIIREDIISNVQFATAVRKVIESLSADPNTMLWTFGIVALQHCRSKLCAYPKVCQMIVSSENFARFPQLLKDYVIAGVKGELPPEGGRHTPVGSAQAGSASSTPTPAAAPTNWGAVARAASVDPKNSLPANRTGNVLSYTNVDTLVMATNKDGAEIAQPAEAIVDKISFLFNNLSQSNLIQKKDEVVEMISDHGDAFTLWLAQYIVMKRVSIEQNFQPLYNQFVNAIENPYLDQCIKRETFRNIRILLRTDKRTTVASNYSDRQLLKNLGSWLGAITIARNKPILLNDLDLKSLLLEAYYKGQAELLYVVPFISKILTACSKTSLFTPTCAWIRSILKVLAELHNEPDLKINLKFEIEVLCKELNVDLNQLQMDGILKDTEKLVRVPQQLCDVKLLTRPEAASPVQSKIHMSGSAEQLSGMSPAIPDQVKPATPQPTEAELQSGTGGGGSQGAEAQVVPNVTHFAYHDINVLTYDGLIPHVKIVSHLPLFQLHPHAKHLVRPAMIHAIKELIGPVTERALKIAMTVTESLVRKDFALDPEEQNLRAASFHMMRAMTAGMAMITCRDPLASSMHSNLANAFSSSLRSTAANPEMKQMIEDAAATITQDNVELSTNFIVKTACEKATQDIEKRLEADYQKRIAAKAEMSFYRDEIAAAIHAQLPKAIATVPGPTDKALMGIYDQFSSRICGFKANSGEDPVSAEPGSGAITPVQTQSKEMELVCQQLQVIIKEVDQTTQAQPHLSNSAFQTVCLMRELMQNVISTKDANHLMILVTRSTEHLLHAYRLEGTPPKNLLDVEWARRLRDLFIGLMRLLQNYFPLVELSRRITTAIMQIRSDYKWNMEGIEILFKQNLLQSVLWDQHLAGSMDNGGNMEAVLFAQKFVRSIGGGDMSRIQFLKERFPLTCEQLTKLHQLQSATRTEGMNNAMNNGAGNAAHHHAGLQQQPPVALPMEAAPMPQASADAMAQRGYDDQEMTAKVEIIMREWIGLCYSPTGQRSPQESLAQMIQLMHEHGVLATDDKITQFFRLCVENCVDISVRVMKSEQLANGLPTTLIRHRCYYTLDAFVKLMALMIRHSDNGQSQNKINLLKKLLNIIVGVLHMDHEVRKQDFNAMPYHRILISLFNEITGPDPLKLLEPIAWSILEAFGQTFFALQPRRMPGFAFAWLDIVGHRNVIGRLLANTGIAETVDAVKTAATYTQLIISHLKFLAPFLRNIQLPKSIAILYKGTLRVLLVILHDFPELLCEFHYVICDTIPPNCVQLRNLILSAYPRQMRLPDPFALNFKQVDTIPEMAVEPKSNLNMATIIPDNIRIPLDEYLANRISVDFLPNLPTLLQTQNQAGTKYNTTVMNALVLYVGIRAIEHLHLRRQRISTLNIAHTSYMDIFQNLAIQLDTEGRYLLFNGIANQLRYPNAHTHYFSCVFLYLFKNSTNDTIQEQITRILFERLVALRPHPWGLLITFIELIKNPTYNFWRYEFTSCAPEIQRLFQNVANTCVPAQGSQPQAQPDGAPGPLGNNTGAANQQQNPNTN
UniProt G5EF15: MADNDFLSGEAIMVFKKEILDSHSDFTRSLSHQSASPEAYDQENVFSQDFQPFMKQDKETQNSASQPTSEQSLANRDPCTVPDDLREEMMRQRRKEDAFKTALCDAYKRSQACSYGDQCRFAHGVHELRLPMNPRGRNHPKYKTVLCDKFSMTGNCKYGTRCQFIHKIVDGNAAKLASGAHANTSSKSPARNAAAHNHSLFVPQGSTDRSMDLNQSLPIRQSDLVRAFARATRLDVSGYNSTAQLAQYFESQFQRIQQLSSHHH
UniProt G5EF02: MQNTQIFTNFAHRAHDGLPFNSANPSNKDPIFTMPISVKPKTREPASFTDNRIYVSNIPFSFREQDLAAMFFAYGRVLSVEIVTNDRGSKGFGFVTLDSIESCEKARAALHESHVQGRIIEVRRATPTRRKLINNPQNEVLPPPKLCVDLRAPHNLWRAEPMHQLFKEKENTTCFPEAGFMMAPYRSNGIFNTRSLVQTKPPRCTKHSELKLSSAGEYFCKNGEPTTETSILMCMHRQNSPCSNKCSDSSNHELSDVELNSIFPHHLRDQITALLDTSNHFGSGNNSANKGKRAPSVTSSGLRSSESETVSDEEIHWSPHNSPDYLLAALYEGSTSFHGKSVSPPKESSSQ

B1: MEG-2 (protein, UniProt Q21127 1-819)
chain: MENCDDLSSDENLPPPGDHRREQSQERARVGNRDESVSSTNMRSIGGAVHNQQQLYWTDMYNGSNNLENFWLCFSGNTSLADDPTVQSDSSASTQSRTNQSGTIAQETDNRNASNFPPRSTTRRGQTYESRDESQGGQAPSHQNQVPGVDRDEYAGDRSNVSINLPSVDQWREYSFSDNSFQGESRTVQRRSSRATHRVKNQFGSIGDGRTSNNTSLQEPVIQDTRNRNRSESSSTMSSQSRTEHAPIFRLQYNYQREADNRSSRLVQIQGHSAPNNANGLQNTGGQAPDIGPEVNGQSSDTRAMNMGNQMAQGDSHVPMNFVPRPLSNGVPRLHGVPRLVDMYDYELAQRAHARRYPTSNMPYGFPNAGFQAPPHMGLWPNNQNADTRAMNMDNRSRDRTFQMPPANAQVPTSSLSGLFNSSINHGSGNQQFQMGQSSSGSAPQLPALPENFLMAHANSQIPTSSLSGLFNAMNHGSGNRMNHSSSGPAPQLPNLPESFLMAHGIGQVETRSPAGPSNSSINHGSGNQQFPVQQSSSRPAPQLPNLPESFLMAHGLSQIQTSSTAGPSNSSMNHGSGNQQFRMGQSSSRPAPQLPSLQESFLMAHGIAQVETSSTAGPSNSSMNHGSGNQQFPVQQSSSRPAPHLPDLIRQEEEFLNTLEFEQFARRLYNDLLPGVDPNYDSGTSTSETPVLKFSITLKAMLYDYWRTMVQMQYRGANINFLQSIINLNARSAALNSSNARASGSADVQNQTVSATVEGADDASANVNALSDLLAQSFPRQAEGEASRRNDIDHPEDDLNQADSPKSDNQSDKDPPSN
B2: DCP2^DCAP-2 (protein, UniProt O62255 1-786)
chain: MEISTENWCKKPKNRSIFSKNISFQKQNKSTEEPPSSVQKLLASLQQAQNKSDLSEQPSTSKPKKNEKRKKAVAQAPASAPAPGPEEKKKQPKRASVGARMQQQAENARISQTKRPRQVSTSKGSSRNTTAPEQQNYQQQQQQYKGPRIPTDILDELEFRFISNMVECEINDNIRVCFHLELAHWYYIDHMVEDDKISGCPNVGSRDFNFQMCQHCRVLRKYAHRADEVLAKFREYKSTVPTYGAILVDPEMDHVVLVQSYFAKGKNWGFPKGKINQAEPPRDAAIRETFEETGFDFGIYSEKEKKFQRFINDGMVRLYLVKNVPKDFNFQPQTRKEIRKIEWFKIDDLPTDKTDELPAYLQGNKFYMVMPFVKDIQIYVQKEKEKLRRRKAEAVQSTPSSSIFSQLFPAQPPPPVPEDATPTRPMYKRLTSEELFSAFKNPPAGEVARPTLPDMSPAVNGLDTLAVLGICTPLKPGASLNEFSGAPQNCPMISEEAGSPADPSAEIGFAMPMDLKQPVVTSDHPWQHHKISDSSAPPQTLESHQGWLDTQLVNTIMHSPNHPLPPTSNSPATPTAVLGHLIGKPIQPQAILPQAATPTALGSAEKPKSSRISLSDNSAFKAISSTQKQSIPKATAAPPSTEKTRSASLSGSSQVVGKPARNLFNSVVSPVSSGIQSIQGDGGAWEDVWFREQLAATTTAGTSISSLAASNQELAMINREETPIEDPYFKQQAYQKAQKAQSLIPACSQWTNSIKLDIDYVVGPLSFWMQQFSTKSPVSGTGPQLP
B3: OMA-1 (protein, UniProt G5EC86 1-407)
chain: MNVNGENNEKIDEHHLESSLAGVPTLPVSPLDHAKDLSQTNPNAQIGDLVTQTANLIAIKKQLLEDIAFNQHIQSMQVRAIQSFPQNNQVAPPFQQFDPRRRGLARMQKPESYKTVICQAWLESKTCSFADNCRFAHGEEELRPTFVEPLQNNKYKTKLCDKYTTTGLCPYGKRCLFIHPDHGPNAYIRADKLLEVSQRHALADIRDQMEQHIMTNGRIAAPPLSAIQHPLEMFARPSTPDEPAAKLPLGPTPVSTRGPRYELPTKELHDAEGAMTYPPSRWPLDPSMFALDAWNMAHRPASPLDSMVLGSAPNAGSFGMLGKQNTPGGVSGYSSAGSTPSQDLSSSSLNAASAAAAAAYFANSAVAQSLLMKSVATDPMMSCNGPFSPMPGFDQLAENMTKHLNLW

What follows are molecules tested against MEG-1::GFP (C. elegans) (UniProt Q21126) (assay: affinity purification with mass spectrometry).

binding | Molecule
binds | CNOT1^NTL-1 (from UniProt Q20937)
binds | POS-1 (from UniProt G5EF15 1-264)
binds | SPN-4 (from UniProt G5EF02)
binds | B1
binds | B2
binds | B3
